# Measurements reported in PubChem BioAssay AID1259254 (NCATS, 2017)
# Assay: 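Gene knock-downs that lead to re-replication, shown by excess G2 DNA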 (primary screen)
# Cells: human HCT116 colorectal cancer cells
# Reagents: single siRNA against human genes
# Duration: 3 days
# Detection: 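Imaged Hoechst DNA stain sorts each cell into a cycle phase by DNA amount; per plate, G2 fraction set to 0% for non-targeting and 100% for GMNN siRNA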
# Reading the numbers: G2 robust z-score and G2 cells, % of GMNN control: higher = more G2 cells, more excess DNA replication; raw share of cells in G2: higher = larger share of cells with G2 DNA content
# Call rule: 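An siRNA counts as active if its G2 robust z-score lies at least 5 MADs above the screen median; here such calls match roughly 38% of GMNN control or more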
# The whole screen tested about 59,000 reagents; this is a part drawn at random. About 1,550 of all reagents (2.6%) were called active. 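G2 share is only a proxy for re-replication; each gene was hit by three separate siRNAs, and active genes were retested.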 Raw values are not corrected between plates. A number with no mark means an inactive call. The numbers tell different reagents against one gene apart. The record does not give: the amount of reagent.
gene,siRNA no.,G2 robust z-score,"G2 cells, % of GMNN control",raw share of cells in G2 (%)
PRTG,1,1.38,12.7,8.26
PRTG,2,-0.316,0.746,3.33
PRTG,3,-0.0336,2.73,4.1
CCS,1,0.695,7.86,5.88
CCS,2,-0.816,-2.77,3.63
CCS,3,-0.193,1.61,5.81
PRSS57,1,-0.448,-0.184,4.84
PRSS57,2,0.117,3.79,5.32
PRSS57,3,-1.07,-4.57,3.97
FRAT2,1,1.33,12.3,7.61
FRAT2,2,3.5,27.6,14.8
FRAT2,3,-0.0884,2.35,4.96
LTF,1,-1.04,-4.36,4.04
LTF,2,1.93,16.6,10.8
LTF,3,-0.528,-0.748,3.63
UGT1A6,1,-0.139,1.99,4.98
UGT1A6,2,-0.59,-1.19,3.35
UGT1A6,3,-1.3,-6.21,3.13
SSX5,1,-0.297,0.874,5.98
SSX5,2,0.0357,3.22,5.02
SSX5,3,0.853,8.97,7.62
OR6N2,1,1.24,11.7,9.3
OR6N2,2,-0.769,-2.45,3.23
OR6N2,3,-0.0431,2.66,3.11
OR8B4,1,1.68,14.8,9.03
OR8B4,2,0.712,7.98,6.13
OR8B4,3,-0.42,0.0131,3.27
LOC643554,1,-0.0064,2.92,4.75
LOC643554,2,-0.968,-3.84,1.89
LOC643554,3,0.0716,3.47,4.16
HRH1,1,0.994,9.96,8
HRH1,2,4.61,35.4,18.5
HRH1,3,3.93,30.7,12.7
NANP,1,-0.105,2.23,4.58
NANP,2,-0.46,-0.27,2.83
NANP,3,-0.0467,2.64,3.99
NRIP3,1,3.54,27.8,15.3
NRIP3,2,0.3,5.08,6.7
NRIP3,3,0.553,6.86,6.47
PRPF40A,1,-0.52,-0.691,4.26
PRPF40A,2,5.36 (active),40.7,21
PRPF40A,3,-0.834,-2.9,2.21
TFR2,1,-0.157,1.86,5.62
TFR2,2,0.49,6.41,7.13
TFR2,3,2.42,20,10.8
CLLU1,1,-0.305,0.823,3.94
CLLU1,2,2.19,18.4,10.4
CLLU1,3,-0.629,-1.46,2.62
OR2B3,1,0.705,7.93,6.68
OR2B3,2,0.00141,2.98,4.55
OR2B3,3,3.75,29.4,13.1

Records listed so far whose target name starts with S or s:
gene,siRNA no.,G2 robust z-score,"G2 cells, % of GMNN control",raw share of cells in G2 (%)
SSX5,1,-0.297,0.874,5.98
SSX5,2,0.0357,3.22,5.02
SSX5,3,0.853,8.97,7.62

The listing continues:
gene,siRNA no.,G2 robust z-score,"G2 cells, % of GMNN control",raw share of cells in G2 (%)
HS3ST3B1,1,2.11,17.8,12
HS3ST3B1,2,0.334,5.32,5.01
HS3ST3B1,3,7.26 (active),54.1,25.6
RIMOC1,1,-0.267,1.09,4.04
RIMOC1,2,-0.597,-1.23,2.57
RIMOC1,3,0.238,4.64,4.68
BSPRY,1,2.85,23,16.4
BSPRY,2,2.47,20.3,11.8
BSPRY,3,3.4,26.9,14.1
LPCAT3,1,2.04,17.3,13.2
LPCAT3,2,-0.529,-0.753,6.18
LPCAT3,3,0.314,5.17,5.51
PSMC2,1,1.72,15,9.15
PSMC2,2,3.79,29.7,15.2
PSMC2,3,1.37,12.6,9.5
GATAD1,1,1.08,10.6,6.53
GATAD1,2,0.669,7.67,9.38
GATAD1,3,0.901,9.3,6.56
IER3IP1,1,0.778,8.44,7.08
IER3IP1,2,-0.603,-1.28,4.07
IER3IP1,3,3.68,28.8,12.3
DICER1,1,-0.133,2.03,4.84
DICER1,2,1.31,12.2,8.05
DICER1,3,4.18,32.4,19.4
OR2T27,1,0.525,6.66,6.23
OR2T27,2,0.56,6.9,6.26
OR2T27,3,-1.11,-4.81,2.8
SAMD12,1,-0.808,-2.72,2.82
SAMD12,2,-0.303,0.833,3.85
SAMD12,3,-0.61,-1.33,4.24
RSPH9,1,-0.372,0.351,3.71
RSPH9,2,-0.392,0.211,3.2
RSPH9,3,0.791,8.53,5.92
CDK18,1,-0.665,-1.71,5.04
CDK18,2,-1.14,-5.02,3.72
CDK18,3,-0.873,-3.18,2.91
